Measured values from PubChem BioAssay AID445 (National Center for Advancing Translational Sciences (NCATS), 2006).
Some of the results follow. Shown are side measurements of this screen, not its main read-out; they come without a call. Compounds called inactive in the main read-out are mostly missing here. Words in brackets tell the shape of the fitted curve; partial curves, single points and poor fits give uncertain potencies.

Assay: IkB Signaling
Conditions: ABC-DLBCL IkBa-CBG/CBR dual luciferase ratio (green luciferase fused to IkBa over red control in OCI-Ly3 lymphoma cells), 4 h; measured here: control luc red channel unless noted
Summary of the method: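 Curves were fitted separately to fusion (green), unfused (red) and ratio luminescence, then classed by r2, magnitude and activity. Cells: OCI-Ly3, 4 h compound plus doxycycline at 37C; 10 uM MG-132 defined full response.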

Question: For `CC1=C(C(=O)Nc2cccnc2)C(c2ccccc2Cl)n2nc(-c3ccccc3)nc2N1` (configuration not stated), which AC50 is on record?
Answer: The AC50 was 12.6 µM [falling, partial curve].

Question: With `CCCS(=O)(=O)C(=C1Nc2ccccc2N1)S(=O)(=O)CCC` as the molecule, how does the AC50 read?
Answer: The AC50 was 7.94 µM [falling, partial curve].

Question: For `COc1ccc(CCNC(=O)c2ccc(Cn3c(SCC(=O)NCCC(C)C)nc4cc5c(cc4c3=O)OCO5)cc2)cc1OC`, which AC50 is on record?
Answer: The AC50 was 31.6 µM [rising, single point] [measured here: IkB-luc green channel].

Question: With `c1ccc(-c2cnc(-c3cccnc3)o2)cc1` as the molecule, how does the AC50 read?
Answer: Its AC50 is 0.316 µM [rising, full curve, poor fit].

Question: For `Clc1cccc(-n2ncc3c(NCCCN4CCOCC4)ncnc32)c1`, which AC50 is on record?
Answer: The AC50 was 0.631 µM [falling, full curve].

Question: For `COc1ccc(-c2noc(CN(C(=O)c3c(-c4ccccc4Cl)noc3C)C(C)C)n2)cc1`, which AC50 is on record?
Answer: The AC50 was 15.8 µM [falling, partial curve].

Question: With `CC(=O)c1c(C)n(-c2ccc(C)cc2)c2ccc(OC(=O)COc3ccccc3)cc12` as the molecule, how does the AC50 read?
Answer: The AC50 was 15.8 µM [falling, partial curve].

Question: With `COc1cc(-c2ccno2)ccc1S(=O)(=O)N1CCN(c2ccccc2)CC1` as the molecule, how does the AC50 read?
Answer: The AC50 was 25.1 µM [falling, single point].

Question: For `O=C(CSc1nnc(CNc2ccc(F)cc2)o1)N1CCCc2ccccc21`, which AC50 is on record?
Answer: Its AC50 is 15.8 µM [falling, partial curve].

Question: With `Cc1ccc(N2C(=O)CCSC23C(=O)N(Cc2ccc(F)cc2)c2ccccc23)cc1` (configuration not stated) as the molecule, how does the AC50 read?
Answer: Its AC50 is 12.6 µM [falling, partial curve].

Question: Which AC50 does the source give for `CCOc1cccc(C(=O)N(Cc2ccc(F)cc2)Cc2ccco2)c1` here?
Answer: The AC50 was 25.1 µM [falling, single point].

Question: Which AC50 does the source give for `Cc1ccc(N2C(=O)CS(=O)(=O)C23C(=O)N(Cc2ccc(Cl)cc2)c2ccccc23)cc1C` (configuration not stated) here?
Answer: Its AC50 is 0.00631 µM [falling, full curve, poor fit].

Question: For `COc1ccc(-n2c(Cc3cccn3C)nnc2SCC(=O)Nc2ccccc2OC)cc1`, which AC50 is on record?
Answer: The AC50 was 10 µM [falling, partial curve].

Question: Which AC50 does the source give for `COc1ccc(OC)c(NC(=O)Cn2c(=O)n(-c3ccc(Cl)cc3)c(=O)c3c(C)c(C)sc32)c1` here?
Answer: The AC50 was 5.01 µM [falling, full curve, poor fit].

Question: Which AC50 does the source give for `O=C1CC(c2ccc(F)cc2F)c2cc3c(cc2N1)OCO3` (configuration not stated) here?
Answer: The AC50 was 3.16 µM [falling, single point].

Question: For `COc1ccc(C(=O)N(c2ccc(C)cc2)S(=O)(=O)c2ccc(C)cc2)cc1`, which AC50 is on record?
Answer: The AC50 was 25.1 µM [falling, partial curve].

Question: Which AC50 does the source give for `CC1CCN(C(=O)CSc2nnc(NC(=O)Nc3ccccc3)s2)CC1` here?
Answer: The AC50 was 3.16 µM [rising, partial curve].
